The target in this assay is NLS mutant TEAD3-Myc/Flag (human) (UniProt Q99594). Nature of the assay: co-IP; anti-Myc IP of MYC-tagged WT or NLS mutant TEAD3 from cell lysates, Western blot of endogenous partners; WT TEAD3 also after 20 μg/ml bleomycin for the indicated time points; lysis buffer with universal nuclease.

By UniProt entry, the sequences of proteins in these tests, tags left out. Where a name states a change or a piece, a line headed by the entry shows the natural chain unless it says otherwise.
UniProt Q99594: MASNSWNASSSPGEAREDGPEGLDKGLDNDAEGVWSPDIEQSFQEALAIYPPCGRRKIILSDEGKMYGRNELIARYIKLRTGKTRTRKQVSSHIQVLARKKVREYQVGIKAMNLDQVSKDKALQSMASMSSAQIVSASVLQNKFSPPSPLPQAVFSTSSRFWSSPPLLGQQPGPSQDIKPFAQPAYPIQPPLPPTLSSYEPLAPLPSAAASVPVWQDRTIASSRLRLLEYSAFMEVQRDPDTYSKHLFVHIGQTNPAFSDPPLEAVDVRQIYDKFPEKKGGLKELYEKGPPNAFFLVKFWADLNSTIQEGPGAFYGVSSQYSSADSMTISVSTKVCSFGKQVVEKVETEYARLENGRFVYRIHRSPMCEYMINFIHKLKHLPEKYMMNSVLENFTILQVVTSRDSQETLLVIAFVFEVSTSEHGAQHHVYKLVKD
UniProt P46937: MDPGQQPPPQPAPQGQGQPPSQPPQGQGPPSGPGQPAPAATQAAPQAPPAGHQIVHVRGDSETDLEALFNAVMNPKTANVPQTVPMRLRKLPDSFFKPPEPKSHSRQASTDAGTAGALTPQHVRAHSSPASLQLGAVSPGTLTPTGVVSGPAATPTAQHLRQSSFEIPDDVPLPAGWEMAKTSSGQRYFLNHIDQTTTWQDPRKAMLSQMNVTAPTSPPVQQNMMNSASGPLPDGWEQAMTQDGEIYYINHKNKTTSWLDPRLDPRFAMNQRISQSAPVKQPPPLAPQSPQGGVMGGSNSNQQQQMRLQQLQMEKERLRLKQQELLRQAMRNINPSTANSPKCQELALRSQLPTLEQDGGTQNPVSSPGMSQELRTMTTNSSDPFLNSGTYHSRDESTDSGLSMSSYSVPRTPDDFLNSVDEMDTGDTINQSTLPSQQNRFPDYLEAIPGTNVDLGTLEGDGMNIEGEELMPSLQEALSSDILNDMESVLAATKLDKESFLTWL

Results are given in words; binding and its absence hold for the method and conditions named. In cells and extracts the contact can be indirect. Binding calls can cover weak binding; strength is not graded here.

In the case of “Yes-associated protein (YAP) (from UniProt P46937 1-504)”, the binding result is “binds”.

The values above are taken from publication PMC9947421.
